## Assay results

From PubChem BioAssay record AID1053133 (Broad Institute, 2014).

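Plate-reader measure of the Venus reporter marking one vaccinia stage in infected cells (the cell line is not named here); read time unknown. The test concentration is not given here. Percent change in Venus reporter signal; lower (more negative) values mean stronger inhibition of that viral stage.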

Values are in %. The controls that fix the scale are not given here. Common to all entries: measured here: Venus reporter, other viral stage. This is a side read-out of the assay, for part of the compounds, not drawn at random.

Result for Cc1ccc(S(=O)(=O)N2C[C@H](O)COC[C@@H]3O[C@@H](CC(=O)NCc4ccc(Cl)c(Cl)c4)CC[C@H]32)cc1 was activity change (Venus) -32.82%.
Result for C[C@@H]1CN([C@@H](C)CO)C(=O)Cc2cc(NC(=O)CCN3CCOCC3)ccc2O[C@H]1CN(C)Cc1ccc(Oc2ccccc2)cc1 was activity change (Venus) -42.9%.
Result for CC(C)C#Cc1ccc2c(c1)O[C@H](CN(C)Cc1ccccn1)[C@H](C)CN([C@@H](C)CO)S2(=O)=O was activity change (Venus) -33.23%.
Result for C[C@H]1CN([C@@H](C)CO)S(=O)(=O)c2ccc(-c3cccc(F)c3)cc2O[C@H]1CN(C)S(=O)(=O)c1ccccc1 was activity change (Venus) -17.82%.
Result for CC(C)CC#Cc1ccc([C@H]2[C@@H](CO)N3C(=O)CN(C(=O)c4ccccn4)C[C@H]23)cc1 was activity change (Venus) -29.05%.
Result for C[C@@H]1CCCCO[C@H](CN(C)Cc2ccc(C(F)(F)F)cc2)[C@@H](C)CN([C@@H](C)CO)C(=O)c2cc(NC(=O)Nc3ccc4c(c3)OCO4)ccc2O1 was activity change (Venus) -48.62%.
Result for CC(C)NC(=O)Nc1cccc2c1O[C@H](CN(C)C(=O)Nc1cccc3ccccc13)[C@@H](C)CN([C@@H](C)CO)C2=O was activity change (Venus) -21.19%.
Result for C=CCN1C(=O)[C@@]2(O[C@@H](CCO)[C@H]([Si](C)(C)c3ccc(OC)cc3)[C@H]2C)c2ccccc21 was activity change (Venus) -79.74%.
Result for CNC[C@H]1Oc2ncc(-c3cccc(F)c3)cc2C(=O)N([C@@H](C)CO)C[C@H]1C was activity change (Venus) -21.64%.
Result for CO[C@H]1CN(C)C(=O)c2ccc(NC(=O)NC(C)C)cc2OC[C@H](C)N(Cc2ccccc2)C[C@H]1C was activity change (Venus) -28.48%.
Result for COc1ccc(CN(C)C[C@H]2OCCCC[C@@H](C)Oc3ccc(NC(=O)Nc4ccc(F)cc4)cc3C(=O)N([C@@H](C)CO)C[C@@H]2C)cc1 was activity change (Venus) -75.18%.
Result for COc1ccccc1S(=O)(=O)N(C)C[C@@H]1Oc2cc(C#CCC3CCCC3)ccc2S(=O)(=O)N([C@@H](C)CO)C[C@H]1C was activity change (Venus) -33.13%.
Result for CNC[C@@H]1Oc2cc(C#Cc3ccccc3OC)ccc2S(=O)(=O)N([C@@H](C)CO)C[C@H]1C was activity change (Venus) -50.46%.
Result for CNC[C@H]1Oc2cc(C#CCC3CCCC3)ccc2S(=O)(=O)N([C@H](C)CO)C[C@@H]1C was activity change (Venus) -26.76%.
Result for C[C@@H]1CN([C@@H](C)CO)C(=O)Cc2cc(NS(C)(=O)=O)ccc2O[C@@H]1CN(C)Cc1ccc(Cl)c(Cl)c1 was activity change (Venus) -46.29%.
Result for OC[C@H]1[C@@H](c2ccc(C#Cc3ccccc3F)cc2)[C@@H]2CN(CC3CCOCC3)CCCCN12 was activity change (Venus) -54.25%.
Result for COc1ccc(S(=O)(=O)N[C@@H]2C=C[C@@H](CC(=O)N3CCC(Cc4ccccc4)CC3)O[C@H]2CO)cc1 was activity change (Venus) -30.01%.
Result for O=C(C[C@H]1CC[C@@H]2[C@H](COC[C@@H](O)CN2S(=O)(=O)c2ccc(Cl)cc2)O1)NCc1ccc(Cl)c(Cl)c1 was activity change (Venus) -50.86%.
Result for COCC(=O)N1CCCCN2[C@H](CO)[C@@H](c3ccc(C#Cc4ccccc4)cc3)[C@@H]2C1 was activity change (Venus) -35.4%.
Result for CCC(=O)N(C)C[C@H]1Oc2cc(C#CC3CCCCC3)ccc2S(=O)(=O)N([C@@H](C)CO)C[C@@H]1C was activity change (Venus) -43.74%.
Result for C[C@@H]1CN([C@H](C)CO)S(=O)(=O)c2ccc(C#Cc3cccc(F)c3)cc2O[C@@H]1CN(C)C(=O)CN1CCOCC1 was activity change (Venus) -32.83%.
Result for CN(C)CC(=O)N[C@@H]1C[C@@H]2O[C@H](CO)CC[C@@H]2O[C@@H]1CCc1ccc(C#Cc2ccccc2)cc1 was activity change (Venus) -33.72%.
Result for Cc1ccc(S(=O)(=O)N(C)C[C@H]2OCCCC[C@H](C)Oc3ccc(NS(=O)(=O)c4ccc(Cl)cc4)cc3C(=O)N([C@@H](C)CO)C[C@@H]2C)cc1 was activity change (Venus) -27.35%.
Result for COc1ccc(-c2ccc([C@H]3[C@H]4CN(C(=O)c5ccc6c(c5)OCO6)CCCCN4[C@H]3CO)cc2)cc1 was activity change (Venus) -59.39%.
Result for C[C@@H]1CCCCO[C@H](CN(C)S(=O)(=O)c2ccc(Cl)cc2)[C@H](C)CN([C@@H](C)CO)C(=O)c2cc(NS(=O)(=O)c3ccccc3)ccc2O1 was activity change (Venus) -20.51%.
Result for COc1ccc(C#Cc2ccc3c(c2)[C@@H]2[C@@H](CCN2C(=O)C2CCC2)[C@H](CO)N3)cc1 was activity change (Venus) -41.5%.

Some entries from above, unchanged:

- COc1ccc(-c2ccc([C@H]3[C@H]4CN(C(=O)c5ccc6c(c5)OCO6)CCCCN4[C@H]3CO)cc2)cc1 : activity change (Venus) -59.39%
- CNC[C@H]1Oc2cc(C#CCC3CCCC3)ccc2S(=O)(=O)N([C@H](C)CO)C[C@@H]1C : activity change (Venus) -26.76%
- C[C@@H]1CCCCO[C@H](CN(C)Cc2ccc(C(F)(F)F)cc2)[C@@H](C)CN([C@@H](C)CO)C(=O)c2cc(NC(=O)Nc3ccc4c(c3)OCO4)ccc2O1 : activity change (Venus) -48.62%